A number of entries come with more than one value. This is not the full list of results. There may be further records. Values that stand side by side do not match, cause unknown; dose, time, organism, isomer or construct need not be as stated for each record.
System: A431 cells
Test: A431 inhibition assay (cell proliferation, CellTiter-Glo, 72 h)
Type: cell-based, human
Details: read-out: A431 IC50 (nM) WT, cellular proliferation, wild type EGFR

IC50: 313 nM, 133 nM, 105 nM
Compound: C=CC(=O)Nc1cc(Nc2nccc(-c3c[nH]c4ccccc34)n2)c(OC)cc1N(C)CCN(C)C [AZD5104]

Source: patent US20200131176A1, “SELECTIVE INHIBITORS OF CLINICALLY IMPORTANT MUTANTS OF THE EGFR TYROSINE KINASE” (CS Pharmatech Limited, priority 2017, published 2020)
